Binding data for 2 molecules are collected here from paper doi:10.1101/867788.

These are yes or no findings as the source states them, for the method shown. In cells and extracts the contact can be indirect. A yes stands for co-enrichment or nearness to the bait. Other partners may have been found. No binding means not detected with the bait.

The target in the assay is MYR1-3xHA (Toxoplasma gondii). As to the kind of experiment: affinity purification with mass spectrometry.

B1: ROP17 (protein, UniProt Q2PAY3 22-608)
chain: LLLRSPTSNDVFGELVASAERAQPLATRLTKRISRLNFNDREDDFWEDHGDASWNNSYTLVNGRTTLGSENRRRPASHSLIERPYYRDGRLSPVLGVQERRGRSVHSYHEEPVSFFDQRAFDEYTFRRRSQLHRQRARAGLRSRIKQNVRRLWTSARGAVRGWGRRVRRKIGDLFVGHLMPQLRRLRFWDQGLPPVVPPLIGNEPGQASVALVAERMEARLREKTLTEKNPTEAQQAVGTYLINSAENTWFISIPGGRYILLKKRGFLGGGGFGLVYHVEHPTTGQPFALKIFVQRVMNNEVGDKISDLIEDEFGVMKYFPPEWTPARMYSELRFMVPLLKLRVLGKPEFQDARNHLRIFSVCALFPKAQGDLEEAAALLADMDRTNAYNMRMSSTIQMVKLLARFHAFGLVHGDVKLQNFLVDKSGLLLLSDFTQILRTNERRYPPVVTVLYMSPEIATCLITRLRNAIPYTAEIDSWMLGISLYRLWCGDFPFGITLDATALQVAGIVIRSSASSLDFASCHDIPEQFREMIVGFLRKTPGVRLSPQQALEQFSLLNWKGPSPASDTASESEPVSTEEAALLQKE
In the case of B1, the binding result is “no binding”.

B2: GRA7 (TGGT1_203310) (protein, UniProt O00933 27-236)
chain: ATASDDELMSRIRNSDFFDGQAPVDSLRPTNAGVDSKGTDDHLTTSMDKASVESQLPRREPLETEPDEQEEVHFRKRGVRSDAEVTDDNIYEEHTDRKVVPRKSEGKRSFKDLLKKLALPAVGMGASYFAADRLVPELTEEQQRGDEPLTTGQNVGTVLGFAALAAAAAFLGMGLTRTYRHFSPRKNRSRQPALEQEVPESGEDGEDARQ
As to B2, the binding entry was “binds”.
